Measurements taken from paper PMC7982521, “Studies on the Changes of Pharmacokinetics Behaviors of Phytochemicals and the Influence on Endogenous Metabolites After the Combination of Radix Bupleuri and Radix Paeoniae Alba Based on Multi-Component Pharmacokinetics and Metabolomics” (Frontiers in Pharmacology, 2021).

Tested on: endogenous metabolites
Assay: Metabolomics: dynamic response of endogenous metabolites in rat plasma after oral RB-RPA (UPLC-HRMS, PCA/PLS-DA/OPLS-DA, relative distance)
Type: in vivo, Sprague-Dawley rats
Conditions: mean ± SD, n = 6

Compound | level of endogenous metabolite normalized by IS (glycyrrhizin) (0.083 h after oral RB-RPA) | level of endogenous metabolite normalized by IS (glycyrrhizin) (0.5 h after oral RB-RPA) | level of endogenous metabolite normalized by IS (glycyrrhizin) (0.75 h after oral RB-RPA) | level of endogenous metabolite normalized by IS (glycyrrhizin) (1 h after oral RB-RPA) | level of endogenous metabolite normalized by IS (glycyrrhizin) (1.5 h after oral RB-RPA) | level of endogenous metabolite normalized by IS (glycyrrhizin) (3 h after oral RB-RPA) | level of endogenous metabolite normalized by IS (glycyrrhizin) (5 h after oral RB-RPA) | level of endogenous metabolite normalized by IS (glycyrrhizin) (8 h after oral RB-RPA) | level of endogenous metabolite normalized by IS (glycyrrhizin) (12 h after oral RB-RPA) | level of endogenous metabolite normalized by IS (glycyrrhizin) (24 h after oral RB-RPA)
CC/C=C\C/C=C\C/C=C\CCCCCCCC(=O)O [α-Linolenic acid] | 0.031±0.011 | 0.062±0.012 | 0.087±0.013 | 0.058±0.020 | 0.056±0.011 | 0.049±0.011 | 0.047±0.015 | 0.042±0.015 | 0.036±0.012 | 0.038±0.010
L-(-)-Asparagine | 0.049±0.011 | 0.068±0.014 | 0.075±0.012 | 0.085±0.017 | 0.051±0.014 | 0.077±0.011 | 0.058±0.008 | 0.031±0.005 | 0.064±0.006 | 0.059±0.010
